Laboratory results: PubChem BioAssay AID1159578 (Peter MacCallum Cancer Centre, 2015)
The deposit covers about 18,000 reagents; shown is a part drawn at random. Of all reagents, about 1,030 (5.7%) were called active. 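Inactive calls also include pools with fewer than 3300 nuclei, whose migration was not assessed.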 Raw values vary from plate to plate and are shown uncorrected. Not all columns of the deposit are shown.

Aim: 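Knock-downs that alter how fast lymphatic endothelial cells migrate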 (primary screen)
System: human lymphatic endothelial cells
Knock-down reagent: siRNA pool against human genes, 40 nM
Duration: 48 h after transfection
Measurement: 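High-content imaging of dye-stained cells in a scratch assay measures filled wound area and nuclei per well; duplicate means given as ratio to mock and robust z-score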
Direction: migration robust z-score: higher = faster migration into the scratch; nuclei per well: higher = more cells in the well
Hit rule: 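Migration changed when robust z exceeds 2 or falls below -2 and mean nuclei number is at least 3300; otherwise not called changed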
Calls: active = migration changed; inactive = no migration change, or too few cells

How did the screen score ARL1?
migration robust z-score: -1.06; migration class with cell-count check: migration z between -2 and 2; enough cells; nuclei per well, duplicate mean: 5683; activity call: inactive

For HAND1, what was measured?
migration robust z-score: -0.57; migration class with cell-count check: migration z between -2 and 2; enough cells; nuclei per well, duplicate mean: 5922; activity call: inactive

For KRTAP10-4, how do the results read?
migration robust z-score: 0.28; migration class with cell-count check: migration z between -2 and 2; enough cells; nuclei per well, duplicate mean: 5498; activity call: inactive

What is on record for ADRA1B?
migration robust z-score: -0.46; migration class with cell-count check: migration z between -2 and 2; enough cells; nuclei per well, duplicate mean: 6132; activity call: inactive

Which result is listed for ZNF581?
migration robust z-score: 0.92; migration class with cell-count check: migration z between -2 and 2; enough cells; nuclei per well, duplicate mean: 5541; activity call: inactive

With PRR5, how do the results read?
migration robust z-score: -0.37; migration class with cell-count check: migration z between -2 and 2; enough cells; nuclei per well, duplicate mean: 6436; activity call: inactive

For CCDC162P, how do the results read?
migration robust z-score: 0.62; migration class with cell-count check: migration z between -2 and 2; enough cells; nuclei per well, duplicate mean: 6168; activity call: inactive

What did the screen give for ADAP1?
migration robust z-score: 1.77; migration class with cell-count check: migration z between -2 and 2; enough cells; nuclei per well, duplicate mean: 5746; activity call: inactive

How did the screen score SUGT1P4-STRA6LP-CCDC180?
migration robust z-score: -0.34; migration class with cell-count check: migration z between -2 and 2; enough cells; nuclei per well, duplicate mean: 4912; activity call: inactive

For LRRTM2, how do the results read?
migration robust z-score: 0.71; migration class with cell-count check: migration z between -2 and 2; enough cells; nuclei per well, duplicate mean: 5816; activity call: inactive

For DUSP14, how do the results read?
migration robust z-score: 0.34; migration class with cell-count check: migration z between -2 and 2; enough cells; nuclei per well, duplicate mean: 5915; activity call: inactive

What is on record for TP73?
migration robust z-score: -0.08; migration class with cell-count check: migration z between -2 and 2; enough cells; nuclei per well, duplicate mean: 4121; activity call: inactive

With PLAC9, what was measured?
migration robust z-score: -0.04; migration class with cell-count check: migration z between -2 and 2; enough cells; nuclei per well, duplicate mean: 4748; activity call: inactive

For SLC8A3, what was measured?
migration robust z-score: 0.47; migration class with cell-count check: migration z between -2 and 2; enough cells; nuclei per well, duplicate mean: 6076; activity call: inactive

With VIPR2, what was measured?
migration robust z-score: 0.08; migration class with cell-count check: migration z between -2 and 2; enough cells; nuclei per well, duplicate mean: 5482; activity call: inactive

For RASGRP2, what was measured?
migration robust z-score: -1.02; migration class with cell-count check: migration z between -2 and 2; enough cells; nuclei per well, duplicate mean: 3484; activity call: inactive

How did the screen score TAOK2?
migration robust z-score: -0.6; migration class with cell-count check: migration z between -2 and 2; enough cells; nuclei per well, duplicate mean: 4190; activity call: inactive

Looked up above.
Value for KRTAP10-4 in “migration class with cell-count check”: migration z between -2 and 2; enough cells
Value of LRRTM2 under “activity call”: inactive
Result of SUGT1P4-STRA6LP-CCDC180 in “nuclei per well, duplicate mean”: 4912
Entry for DUSP14 in “activity call”: inactive

Next reagents follow:
For TRIM58, what was measured?
migration robust z-score: 1.43; migration class with cell-count check: migration z between -2 and 2; enough cells; nuclei per well, duplicate mean: 6682; activity call: inactive

How did the screen score ACTR2?
migration robust z-score: -0.8; migration class with cell-count check: migration z between -2 and 2; enough cells; nuclei per well, duplicate mean: 5796; activity call: inactive

Which result is listed for TCTN1?
migration robust z-score: 0.56; migration class with cell-count check: migration z between -2 and 2; enough cells; nuclei per well, duplicate mean: 5028; activity call: inactive

For BTN3A3, what does the deposit list?
migration robust z-score: -0.3; migration class with cell-count check: migration z between -2 and 2; enough cells; nuclei per well, duplicate mean: 6092; activity call: inactive

With EMX2, what does the deposit list?
migration robust z-score: 0.52; migration class with cell-count check: under 3300 nuclei; migration not judged; nuclei per well, duplicate mean: 1350; activity call: inactive

With OR2K2, what was measured?
migration robust z-score: -0.41; migration class with cell-count check: migration z between -2 and 2; enough cells; nuclei per well, duplicate mean: 6190; activity call: inactive

How did the screen score RBM43?
migration robust z-score: -0.96; migration class with cell-count check: migration z between -2 and 2; enough cells; nuclei per well, duplicate mean: 5529; activity call: inactive

Which result is listed for HLA-DQB1?
migration robust z-score: -0.21; migration class with cell-count check: migration z between -2 and 2; enough cells; nuclei per well, duplicate mean: 5432; activity call: inactive

For POLH, what does the deposit list?
migration robust z-score: -3.55; migration class with cell-count check: migration z below -2; enough cells; nuclei per well, duplicate mean: 4000; activity call: active

What did the screen give for MYH6?
migration robust z-score: -0.88; migration class with cell-count check: migration z between -2 and 2; enough cells; nuclei per well, duplicate mean: 5021; activity call: inactive
